The source of these data is publication PMC12548414.

The whole screen tested about 1,600 compounds, of which about 20 (1%) showed an effect of 50% or more. Some of the results follow.

The assay concerns T1, E. coli pLC1021 (luc-trpAt trans-translation reporter).
T1 construct: pLC1021 luc-trpAt reporter strain
On the set-up: species or system Escherichia coli pLC1021; luc-trpAt non-stop luciferase reporter; luminescence rises when trans-translation is inhibited; normalized to KKL-35 and DMSO. Particulars: reporter signal, KKL-35 = 100%; rise means trans-translation inhibition; 2 h, 20 µM. As for the experimental part: The luciferase screen was performed as previously described ([16]). […] 48 µL of cells was transferred to white 96-well plates, and 2 µL DMSO or 20 µM compound, or 20 µM KKL-35 was added. Plates were sealed with adhesive film, vortexed gently to mix, and incubated at room temperature for 2 h. 50 µL Bright-Glo reagent (Promega, Madison, WI) was added to each well, and the plates were sealed with adhesive film, vortexed vigorously, and incubated for an additional 10 min at room temperature. Luminescence was measured at 560 nm using a SpectraMax i3 microplate reader and readings for each plate were normalized to the average of three KKL-35-treated wells (positive control) and three DMSO-treated wells (negative control) within the plate to correct for plate-to-plate and day-to-day variations. Results from at least two biological repeats were averaged, and GraphPad Prism was used to plot the data. We screened a library of 1,601 anti-tubercular small molecules for their ability to inhibit trans-translation using a luciferase reporter in Escherichia coli. In this luc-trpAt reporter, the firefly luciferase gene has a trpA transcriptional terminator before the stop codon, such that luciferase is translated from a non-stop mRNA ([16]). When trans-translation is active, the luciferase will be tagged and degraded, but when trans-translation is inhibited, active luciferase will accumulate, resulting in a luminescent signal when luciferin is added. Luciferase activity was measured after growth in the presence of compounds from the library at 20 µM, using the known trans-translation inhibitor KKL-35 as a positive control (Fig. 1A) ([16], [17]). Compounds with activity one standard deviation above the median were scored as positive (Fig. S1 and Table S1).
In the case of `Clc1cccc(Nc2nc(NCc3ccco3)c3ccccc3n2)c1` [KKL-0728], the “% activation” value came to 0%.

Turning to `O=C(Nc1ccc(Cl)cc1C(F)(F)F)c1ccc([N+](=O)[O-])o1` [KKL-0712], the “% activation” value came to 0%.

As to `CC(C)OC(=O)CSc1nnc(-c2ccc(Cl)cc2Cl)o1` [KKL-1620], the “% activation” value is reported as 0%. With `CN(C)CCCn1c(SCC(=O)Nc2nc(-c3cccc(Br)c3)cs2)nc2ccccc2c1=O` [KKL-0806], the “% activation” value is on record as 0%. The value for `CCOC(=O)c1ccc(NC(=O)c2ccc(C)s2)cc1` [KKL-0584] was 0%; that for `CCC(C)c1ccc(OCCCCn2ccnc2)cc1` (stereo not shown) [KKL-1371] was 14%; that for `Cn1nc(-c2ccc3ccccc3c2)cc1[C@H]1CN2CC[C@H]1C[C@@H]2COC(=O)Nc1cccc(C(F)(F)F)c1` [KKL-0323] was 0%. In the case of `Cc1ccc2cc3c(nc2c1C)OC(=O)N(C1CCCC1)C3` [KKL-0690], the “% activation” value was determined as 1%. The value for `Cc1ccc(-c2nn(-c3cccc(F)c3)cc2CNCc2cnn(Cc3ccccc3)c2)o1` [KKL-0458] was 0%.

Regarding `CC(C)(C)n1cnc2cc(NC(=O)c3ccc(Cl)cc3)ccc21` [KKL-1231], the “% activation” value is reported as 0%. `Brc1ccc(-c2nn(-c3ccccc3)cc2CNCc2ccccc2)cc1` [KKL-0405]: the “% activation” value is listed as 0%. As for `Cc1ccc2nc(Cl)c(/C=C/C(=O)c3ccco3)cc2c1` [KKL-0389], the “% activation” value stood at 0%. To `CCOC(=O)COc1ccc(S(=O)(=O)N2CCc3ccccc3C2)cc1` [KKL-1396] belongs 2%; to `Cc1ccc(-n2cc(CN(C)Cc3ccccn3)c(-c3ccc(F)cc3)n2)cc1` [KKL-0489], 1%; to `O=[N+]([O-])c1ccc(Sc2nc3ccccc3o2)c([N+](=O)[O-])c1` [KKL-1104], 0%. To `CC(C)(C)c1cc(NCCCn2ccnc2)n2ncc(-c3ccccc3)c2n1` [KKL-0872] belongs 0%; to `Cc1nc2ccc(C(=O)OCc3cccc(F)c3)cc2nc1C` [KKL-1308], 0%; to `Cc1ccccc1C1c2[nH]c3ccccc3c2CCN1C(=O)c1nn(C)c(=O)c2ccccc12` (stereo not shown) [KKL-0620], 1%. To `CC(=O)Oc1cccc2ccc(/C=C/c3c(F)cccc3Cl)nc12` [KKL-1499] belongs 0%. As to `CCc1c(C)c2ccc(OCC(=O)OC)c(C)c2oc1=O` [KKL-1278], the “% activation” value came out at 0%.

For the compound `CCOc1cc(C(=O)ON=C(N)Cc2ccc(Cl)cc2Cl)cc(OCC)c1OCC` [KKL-1414], the “% activation” value was found to be 0%.

In the case of `Cc1ccnc(NC(=O)COc2ccc([N+](=O)[O-])cc2)c1` [KKL-0299], the “% activation” value is given as 0%.

Regarding `CCc1ccc(C2CC(C(F)(F)F)n3ncc(C(=O)NCc4cccs4)c3N2)cc1` (stereo not shown) [KKL-1779], the “% activation” value is listed as 0%.

`CCOC(=O)c1cc(CC)sc1NC(=O)c1cc2ccccc2oc1=O` [KKL-1372]: the “% activation” value came to 0%. The value for `CCc1ccc(/C=C/C(=O)C2C(=O)c3ccccc3C2=O)cc1` [KKL-1072] was 0%; that for `Cc1ccc2nc(C(F)(F)F)c(C(=O)NCc3cc(Cl)cc(Cl)c3)n2c1` [KKL-1785] was 16%; that for `CCC1CCCCN1C(=O)COC(=O)c1cc2ccccc2cc1O` (stereo not shown) [KKL-0823] was 0%. To `COC(=O)[C@@H](NC(=O)c1cc(COc2ccc(F)cc2Cl)on1)c1ccccc1` [KKL-0495] belongs 2%; to `O=C(CCc1ccccc1)NC(=S)Nc1ccc(N2CCCCC2)cc1` [KKL-0596], 1%. To `COc1ccc(NC(=O)c2ccc(C#CC(C)(C)O)s2)cc1` [KKL-0562] belongs 1%.

For `c1coc(CNc2nc(N3CCCCC3)nc3ccccc23)c1` [KKL-1096], the “% activation” value worked out at 0%.

`O=C(Nc1ccc(F)c(Cl)c1)c1ccc([N+](=O)[O-])o1` [KKL-1402]: the “% activation” value is listed as 0%. The value for `Clc1ccc2nc(-c3ccccn3)c(Nc3ccc4c(c3)OCO4)n2c1` [KKL-1117] was 2%; that for `O=c1c2cc(Cl)ccc2oc2nc3n(c(=O)c12)CCCS3` [KKL-1007] was 8%; that for `Clc1ccc(OCCCCCn2ccnc2)c(Cl)c1` [KKL-0421] was 0%. Regarding `c1ccc(OCc2nn3c(-c4[nH]nc5c4CCC5)nnc3s2)cc1` [KKL-1028], the “% activation” value came to 7%. The value for `Cc1ccc(NCc2nnc(SCC(=O)OC3CCCCC3)o2)c(C)c1` [KKL-1632] was 0%; that for `Cc1ccc(-n2cc(CN3CCN(c4ccccn4)CC3)c(-c3ccc(F)cc3)n2)cc1` [KKL-0320] was 0%. The value for `CSCCC(=O)N1CCCC(CNC(=O)c2ccc(-c3ccccc3)cc2)C1` (stereo not shown) [KKL-0641] was 2%; that for `CCc1ccc(OCC(=O)NNC(=O)c2cnccn2)c(Br)c1` [KKL-1280] was 3%; that for `Cc1nc2ccccn2c1C(=O)NCc1ccccc1` [KKL-1735] was 0%. With `Cc1cc(N2CCCCC2)nc2ccc(NC(=O)c3ccc(Br)o3)cc12` [KKL-1124], the “% activation” value stood at 0%.

As to `Cc1ccn2c(Nc3ccccc3C)c(-c3ccccn3)nc2c1` [KKL-1590], the “% activation” value is on record as 0%. For the compound `CN(c1ccccc1)c1nc(N2CCCC2)nc(-n2ccnc2)n1` [KKL-1519], the “% activation” value came to 0%.

As for `O=C(C1CCN(c2nnc(-n3cccc3)s2)CC1)N1CCN(c2cccc(C(F)(F)F)c2)CC1` [KKL-1146], the “% activation” value came out at 5%. In the case of `O=C(Nc1ccc(Oc2cccnc2)cc1)C1Oc2ccccc2O1` [KKL-0696], the “% activation” value is 0%. Regarding `O=C(OCC#CCSc1nnc(-c2ccc([N+](=O)[O-])cc2)o1)c1cccs1` [KKL-0970], the “% activation” value was 6%. To `NC(=O)c1c(NC(=O)c2c(F)c(F)c(F)c(F)c2F)sc2c1CCC2` [KKL-1570] belongs 0%; to `COC(=O)C(CCSC)NC(=O)c1cc(COc2ccc3sc(C)nc3c2)on1` (stereo not shown) [KKL-1122], 0%. To `Cn1c(-c2ccccc2)c(C(=O)CCl)c2ccccc21` [KKL-0824] belongs 0%; to `Cc1cc([N+](=O)[O-])ccc1NC(=O)Nc1cccc(C(F)(F)F)c1` [KKL-1531], 0%. The value for `O=C(Nc1ccccc1)Nc1ccc(S(=O)(=O)Nc2cccc(C(F)(F)F)c2)cc1` [KKL-0719] was 0%; that for `CC1=NN(C(=O)c2ccccc2)C(O)(c2ccncc2)C1` (stereo not shown) [KKL-1502] was 0%; that for `CC1CCc2c(sc3nc(C(C)(C)C)nc(N4CCNCC4)c23)C1` (stereo not shown) [KKL-0525] was 0%. As for `c1ccc(CCN(Cc2ccccc2)C2CCN(Cc3c[nH]c4ccccc34)CC2)cc1` [KKL-0907], the “% activation” value is recorded as 0%.
